Measurements as given in article PMC3842983.
Results are given in words; binding and its absence hold for the method and conditions named. Binding seen in cells or lysates may run through a third protein. Some binding calls cover weakened binding; strength is not graded here.

The chains behind the UniProt entries cited, without tags or fusion partners.
UniProt Q96S59: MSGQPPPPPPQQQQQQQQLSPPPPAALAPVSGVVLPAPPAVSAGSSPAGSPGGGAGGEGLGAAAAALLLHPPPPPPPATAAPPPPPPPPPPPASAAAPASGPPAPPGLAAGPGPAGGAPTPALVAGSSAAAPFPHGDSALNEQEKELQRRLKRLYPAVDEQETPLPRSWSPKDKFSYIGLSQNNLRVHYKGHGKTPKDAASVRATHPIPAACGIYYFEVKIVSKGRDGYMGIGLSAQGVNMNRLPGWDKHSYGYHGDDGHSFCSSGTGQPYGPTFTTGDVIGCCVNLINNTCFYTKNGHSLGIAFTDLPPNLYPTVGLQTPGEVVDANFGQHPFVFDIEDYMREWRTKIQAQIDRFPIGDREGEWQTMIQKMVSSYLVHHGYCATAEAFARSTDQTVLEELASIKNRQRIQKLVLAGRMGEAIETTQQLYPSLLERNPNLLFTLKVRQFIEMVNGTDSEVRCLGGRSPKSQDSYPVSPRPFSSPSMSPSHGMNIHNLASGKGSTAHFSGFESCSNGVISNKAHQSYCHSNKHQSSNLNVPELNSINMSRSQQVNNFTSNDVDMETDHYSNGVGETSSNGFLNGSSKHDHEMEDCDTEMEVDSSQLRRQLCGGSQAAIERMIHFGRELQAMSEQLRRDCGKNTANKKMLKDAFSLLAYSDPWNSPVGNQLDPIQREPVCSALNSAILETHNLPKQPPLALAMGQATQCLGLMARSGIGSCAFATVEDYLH
UniProt Q9JKC6: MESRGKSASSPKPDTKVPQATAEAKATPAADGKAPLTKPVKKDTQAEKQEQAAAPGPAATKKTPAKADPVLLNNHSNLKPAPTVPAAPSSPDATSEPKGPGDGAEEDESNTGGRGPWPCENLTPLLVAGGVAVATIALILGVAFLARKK
UniProt Q9Z188: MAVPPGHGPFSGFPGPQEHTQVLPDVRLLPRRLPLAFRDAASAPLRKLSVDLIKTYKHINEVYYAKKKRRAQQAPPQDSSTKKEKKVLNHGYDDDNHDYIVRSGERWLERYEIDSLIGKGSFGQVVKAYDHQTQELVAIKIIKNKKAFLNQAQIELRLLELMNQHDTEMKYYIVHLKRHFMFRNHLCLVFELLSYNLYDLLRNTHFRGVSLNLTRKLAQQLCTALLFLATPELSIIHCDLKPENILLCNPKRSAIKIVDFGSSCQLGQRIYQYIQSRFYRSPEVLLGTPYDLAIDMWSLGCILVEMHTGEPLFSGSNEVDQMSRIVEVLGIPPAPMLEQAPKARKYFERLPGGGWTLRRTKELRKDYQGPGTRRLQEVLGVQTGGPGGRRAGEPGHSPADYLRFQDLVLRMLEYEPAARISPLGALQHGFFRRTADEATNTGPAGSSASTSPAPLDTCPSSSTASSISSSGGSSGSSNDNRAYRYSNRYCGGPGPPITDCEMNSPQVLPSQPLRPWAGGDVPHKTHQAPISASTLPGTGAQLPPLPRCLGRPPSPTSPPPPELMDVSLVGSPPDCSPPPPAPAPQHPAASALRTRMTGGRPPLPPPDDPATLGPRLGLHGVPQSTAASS

Target: human FLAG-tagged RanBPM full length (human) (UniProt Q96S59)
Experiment: co-IP; HEK293T cells double or triple transfected; immunoprecipitation of FLAG-RanBPM with rabbit polyclonal anti-FLAG and protein A agarose from 2 mg lysate; Western blot

| binding | Substance |
| --- | --- |
| binds | mouse Cend1 full length (expressed in HEK293T cells) (from UniProt Q9JKC6 1-149) |
| binds | mouse Dyrk1B (dual specificity tyrosine-phosphorylation regulated kinase 1B) full length (from UniProt Q9Z188 1-629) (enzyme) |
